# According to PubChem BioAssay (Tox21):
# Protein sequences, listed by entry. Tags and fused reporters are not part of them. Lines headed by an entry give the natural chain unless they say otherwise; changes in a name come on top.
# UniProt P19793: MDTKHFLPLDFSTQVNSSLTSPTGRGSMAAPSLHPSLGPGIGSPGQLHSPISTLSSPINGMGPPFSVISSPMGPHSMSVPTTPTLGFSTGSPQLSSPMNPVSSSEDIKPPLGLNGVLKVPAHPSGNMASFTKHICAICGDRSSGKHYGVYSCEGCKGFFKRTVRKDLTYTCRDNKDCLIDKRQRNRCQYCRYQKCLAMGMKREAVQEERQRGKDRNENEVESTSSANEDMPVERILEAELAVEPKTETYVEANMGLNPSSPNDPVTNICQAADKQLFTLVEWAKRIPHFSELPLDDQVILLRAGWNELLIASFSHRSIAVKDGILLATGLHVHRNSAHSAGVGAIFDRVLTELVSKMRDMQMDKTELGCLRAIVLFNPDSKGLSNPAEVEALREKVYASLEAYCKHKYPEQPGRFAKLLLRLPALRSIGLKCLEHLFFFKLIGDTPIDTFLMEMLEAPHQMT
# Inconclusive means that the source gave no clear call. Such entries were picked first, then a sample of the others. Where the call is inconclusive, the potency comes from a doubtful curve fit. Active and inactive are the calls of the source. Unless noted, calls follow the shape of the dose curve; as a rule, active = well fitted activation curve with a large enough effect in the repeat runs; inconclusive = weak or mixed curves, or effect the other way; inactive = no such curve, though single readings can be large or run the other way. Non-standard residues stand in square brackets, D forms with d. Residues, ends and D or L forms follow the SMILES beside them. pGlu = O=C1CC[C@@H](C(=O)O)N1
# Target: Retinoic acid receptor RXR-alpha (Homo sapiens) (UniProt P19793)
# Assay: qHTS assay to identify small molecule agonists of the RXR signaling pathway (AID 1159527; calls by dose curve; also: nearly all actives have a fitted effect of over 35% in size)
# Conditions: HEK293T RXRa-UAS-bla, beta-lactamase ratio, 16 h; activation: at 76.8 µM (top of the series) unless noted
# In short: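 Cells plated at 2,000/well, rested 5 hr at 37 C, pin-dosed with DMSO compound solutions, incubated 16 hr, then loaded with B/G FRET substrate for 2 hr at RT before dual-emission fluorescence reading.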
# % is scaled to controls: 0 for no effect and ±100 for the full control effect; potency is read from the fitted curve at half-maximal effect.
Structure (SMILES),Potency,activation
CC(C)OC(=O)C(C)N(C(=O)c1ccccc1)c1ccc(F)c(Cl)c1 (centres undefined),"inconclusive: 3.89 µM [inhibitor, full curve]",–
C#CCN(C)CCCOc1ccc(Cl)cc1Cl,inactive,–
C#CCN[C@@H]1CCc2ccccc21,inactive,–
CCCCCCCCCC(C)C=O (centres undefined),inconclusive: 43.6 µM,–
CCOC(=O)CC(=O)c1ccccc1,inactive,–
C/C=C/c1ccc(OCC)c(O)c1,inactive,–
O=C(O)c1ccc2cc(O)ccc2c1,–,inconclusive: -23.6%
Cc1ccnc2ccccc12,–,inconclusive: -23.8%
CCS(=O)(=O)c1ccc(OC)c(C(=O)OC)c1,inactive,–
CCOC(=O)C1CC(=O)C(=C(O)C2CC2)C(=O)C1 (centres undefined),–,inconclusive: 6.51%

# Test system: not listed separately
# Assay: qHTS assay to identify small molecule agonists of the retinoic acid receptor (RAR) signaling pathway (AID 1159553)
# Conditions: C3RL4 RARE luciferase reporter, agonist, 6 h; activation: at 73.3 µM (top of the series) unless noted
# In short: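 C3RL4 RARE-luciferase cells were seeded at 1,000/well and grown overnight at 37 C, then exposed to compounds for 6 hr at 37 C, 5% CO2. Luciferase reagent was added and luminescence was read after 30 min at room temperature.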
Structure (SMILES),activation,Potency
OCCCO,inconclusive: 0.936% [phenotype inactive] [at 94.8 µM],–
NS(=O)(=O)c1cc2c(cc1Cl)CN(C1CCCCC1)C2=O,–,"inconclusive: 26.6 µM [activator, partial curve]"
CCCCCOC(C)=O,–,"inconclusive: 77 µM [inhibitor, single point]"
Clc1ccccn1,–,"inconclusive: 68.6 µM [activator, single point]"
O=S(=O)(Oc1ccc(Cl)cc1)c1ccccc1,–,"inconclusive: 48.6 µM [activator, partial curve]"
CCO[C@H](Cc1ccc(OCCc2ccc(OS(C)(=O)=O)cc2)cc1)C(=O)O,–,inactive
Nc1ccc(-c2ccc(F)cc2)cc1,–,"inconclusive: 0.545 µM [activator, full curve, poor fit]"
CCCCOc1ccc(N)cc1,–,"inconclusive: 54.5 µM [activator, partial curve]"
CCCc1ccc(O)c(OC)c1,–,inactive
CC(C)SCc1ccco1,–,inactive
CCCC(=O)c1ccccc1,–,inactive
Nc1ccc(C(=O)OCCCOC(=O)c2ccc(N)cc2)cc1,–,"inconclusive: 48.6 µM [activator, partial curve, poor fit]"
CC(C)C(=O)OCc1cccc(OC(=O)[C@@H]2N3C(=O)[C@@H](NC(=O)Cc4ccccc4)[C@H]3SC2(C)C)c1,–,"inconclusive: 23.7 µM [activator, partial curve, poor fit]"
OCCOc1cccc(OCCO)c1,–,inconclusive: 68.6 µM [activator]
O=C1c2ccccc2C(=O)C1c1ccc2cc(S(=O)(=O)O)cc(S(=O)(=O)O)c2n1,inconclusive: 4.88% [phenotype inactive] [at 94.8 µM],–
Nc1c(I)cc(I)c(C(=O)N(CCC(=O)O)c2ccccc2)c1I,–,inactive
O=C(OCCCCCOC(=O)c1ccccc1)c1ccccc1,–,"inconclusive: 21.7 µM [activator, partial curve, poor fit]"
O=S(=O)(O)c1cccc(S(=O)(=O)O)c1,–,"inconclusive: 77 µM [inhibitor, single point]"
Cc1ccc(C#N)cc1,–,inactive
O=C(O)c1c(O)c(-c2ccccc2)nc2ccccc12,–,"inconclusive: 23.7 µM [activator, partial curve, poor fit]"

# 8 neighbouring records from above:
Structure (SMILES),activation,Potency
CCCc1ccc(O)c(OC)c1,–,inactive
CC(C)SCc1ccco1,–,inactive
CCCC(=O)c1ccccc1,–,inactive
Nc1ccc(C(=O)OCCCOC(=O)c2ccc(N)cc2)cc1,–,"inconclusive: 48.6 µM [activator, partial curve, poor fit]"
CC(C)C(=O)OCc1cccc(OC(=O)[C@@H]2N3C(=O)[C@@H](NC(=O)Cc4ccccc4)[C@H]3SC2(C)C)c1,–,"inconclusive: 23.7 µM [activator, partial curve, poor fit]"
OCCOc1cccc(OCCO)c1,–,inconclusive: 68.6 µM [activator]
O=C1c2ccccc2C(=O)C1c1ccc2cc(S(=O)(=O)O)cc(S(=O)(=O)O)c2n1,inconclusive: 4.88% [phenotype inactive] [at 94.8 µM],–
Nc1c(I)cc(I)c(C(=O)N(CCC(=O)O)c2ccccc2)c1I,–,inactive

# Later entries:

Structure (SMILES),activation,Potency
O=C(O)c1cc(C(=O)O)c(C(=O)O)cc1C(=O)O,inconclusive: 0.438% [phenotype inactive],–
CCC(C(=O)O)c1ccc(N2Cc3ccccc3C2=O)cc1 (centres undefined),–,active: 3.76 µM
CC(C)(C)c1ccc(-c2ccc(C(C)(C)C)cc2)cc1,–,"inconclusive: 61.1 µM [activator, partial curve, poor fit]"
Cc1ccc(C(C)NC(=O)[C@@H](NC(=O)OC(C)C)C(C)C)cc1 (some centres undefined),–,inactive
O=C1C=CCCC1,–,inactive
CCC(=O)/C=C/c1ccc(OC)cc1,–,active: 61.1 µM
CCCCc1ccc2nc(NC(=O)OC)[nH]c2c1,–,active: 8.41 µM
CCNC(=O)[C@@H]1CCCN1C(=O)[C@H](CCCN=C(N)N)NC(=O)[C@H](CC(C)C)NC(=O)CNC(=O)[C@H](Cc1ccc(O)cc1)NC(=O)[C@H](CO)NC(=O)[C@H](Cc1c[nH]c2ccccc12)NC(=O)[C@H](Cc1cnc[nH]1)NC(=O)[C@@H]1CCC(=O)N1 ([pGlu]HWSYGLRP-NHEt),inconclusive: 1.84% [phenotype inactive],–
CCOC(=O)C(C)Oc1ccc(Oc2nc3ccc(Cl)cc3o2)cc1 (centres undefined),inconclusive: 8.26% [phenotype inactive],–
CC(C)OC(=O)C(C)N(C(=O)c1ccccc1)c1ccc(F)c(Cl)c1 (centres undefined),–,inactive
C#CCN(C)CCCOc1ccc(Cl)cc1Cl,–,"inconclusive: 10.6 µM [activator, partial curve]"
C#CCN[C@@H]1CCc2ccccc21,–,inactive
CCCCCCCCCC(C)C=O (centres undefined),inconclusive: -3% [phenotype inactive],–
CCOC(=O)CC(=O)c1ccccc1,–,"inconclusive: 48.6 µM [activator, partial curve, poor fit]"
C/C=C/c1ccc(OCC)c(O)c1,–,active: 54.5 µM
O=C(O)c1ccc2cc(O)ccc2c1,–,"inconclusive: 53.7 µM [activator, partial curve]"
Cc1ccnc2ccccc12,–,"inconclusive: 76.7 µM [activator, partial curve, poor fit]"
CCS(=O)(=O)c1ccc(OC)c(C(=O)OC)c1,–,inactive
CCOC(=O)C1CC(=O)C(=C(O)C2CC2)C(=O)C1 (centres undefined),–,inactive
